These results are taken from publication PMC4387756.

Chains of the proteins cited; added tags and fusions are not shown.
UniProt P51788: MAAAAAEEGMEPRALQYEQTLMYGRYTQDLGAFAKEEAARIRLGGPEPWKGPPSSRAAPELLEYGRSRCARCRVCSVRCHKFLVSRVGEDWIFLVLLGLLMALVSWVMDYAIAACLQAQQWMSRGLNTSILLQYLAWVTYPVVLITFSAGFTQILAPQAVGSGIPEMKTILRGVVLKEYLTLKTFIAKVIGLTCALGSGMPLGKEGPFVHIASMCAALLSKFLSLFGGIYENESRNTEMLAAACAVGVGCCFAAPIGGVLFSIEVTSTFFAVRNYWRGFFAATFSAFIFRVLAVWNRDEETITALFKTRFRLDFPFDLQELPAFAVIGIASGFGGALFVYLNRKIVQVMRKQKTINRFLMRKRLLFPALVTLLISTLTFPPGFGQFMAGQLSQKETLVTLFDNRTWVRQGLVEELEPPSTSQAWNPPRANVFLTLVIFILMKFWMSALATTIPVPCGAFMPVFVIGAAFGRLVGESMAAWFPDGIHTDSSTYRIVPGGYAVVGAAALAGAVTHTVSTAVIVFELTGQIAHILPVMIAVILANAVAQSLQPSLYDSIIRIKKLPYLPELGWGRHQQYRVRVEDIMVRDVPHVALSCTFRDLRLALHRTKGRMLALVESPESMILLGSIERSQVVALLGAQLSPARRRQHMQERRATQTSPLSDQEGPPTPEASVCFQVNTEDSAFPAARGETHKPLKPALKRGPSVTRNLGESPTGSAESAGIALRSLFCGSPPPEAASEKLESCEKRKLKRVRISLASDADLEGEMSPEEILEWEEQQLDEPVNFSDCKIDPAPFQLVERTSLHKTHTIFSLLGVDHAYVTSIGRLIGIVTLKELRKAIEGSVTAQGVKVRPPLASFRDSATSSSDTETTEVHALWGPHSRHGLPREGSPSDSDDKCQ

For assay [1], the target named is ClCN2 (chloride channel ClCN2), endogenous (human (endogenous in CFBE)) (UniProt P51788). As to the kind of experiment: co-IP; endogenous ClCN2 immunoprecipitated from polarized CFBE cell lysates (protein A/G sepharose beads), blot for ENaCγ; control conditions or 10 mmol/L MβCD on the apical surface for 30 min at 37°C (interaction decreased).
The target in assay [2] is full-length FLAG-tagged ClCN2 (WT-ClC2) (UniProt P51788). Description: co-IP; FLAG-tagged wild-type or truncated ClCN2 immunoprecipitated with 1.5 μg FLAG antibody and protein A/G sepharose beads from transfected polarized CFBE cell lysates, blot for endogenous ENaCγ; normalised to the FLAG pulldown.

No constants are given. Whether binding was seen depends on the method and setting. In cells and extracts the contact can be indirect. Some results given as binding are weak or reduced against the parent protein; the word gives no strength.

B1: epithelial sodium channel gamma subunit (ENaCγ), endogenous (protein, UniProt P51170 1-649)
chain: MAPGEKIKAKIKKNLPVTGPQAPTIKELMRWYCLNTNTHGCRRIVVSRGRLRRLLWIGFTLTAVALILWQCALLVFSFYTVSVSIKVHFRKLDFPAVTICNINPYKYSTVRHLLADLEQETREALKSLYGFPESRKRREAESWNSVSEGKQPRFSHRIPLLIFDQDEKGKARDFFTGRKRKVGGSIIHKASNVMHIESKQVVGFQLCSNDTSDCATYTFSSGINAIQEWYKLHYMNIMAQVPLEKKINMSYSAEELLVTCFFDGVSCDARNFTLFHHPMHGNCYTFNNRENETILSTSMGGSEYGLQVILYINEEEYNPFLVSSTGAKVIIHRQDEYPFVEDVGTEIETAMVTSIGMHLTESFKLSEPYSQCTEDGSDVPIRNIYNAAYSLQICLHSCFQTKMVEKCGCAQYSQPLPPAANYCNYQQHPNWMYCYYQLHRAFVQEELGCQSVCKEACSFKEWTLTTSLAQWPSVVSEKWLLPVLTWDQGRQVNKKLNKTDLAKLLIFYKDLNQRSIMESPANSIEMLLSNFGGQLGLWMSCSVVCVIEIIEVFFIDFFSIIARRQWQKAKEWWAWKQAPPCPEAPRSPQGQDNPALDIDDDLPTFNSALHLPPALGTQVPGTPPPKYNTLRLERAFSNQLTDTQMLDEL
As for B1, the binding entry in assay [1] and in assay [2] was “binds” throughout.
